This is one part of the list. Small differences around the control level are noise.
These targets were tested with Cc1nc(Nc2ncc(C(=O)Nc3c(C)cccc3Cl)s2)cc(N2CCN(CCO)CC2)n1 [dasatinib] (assay: log2 fold change of tryptic peptide abundance, ligand vs vehicle (limited proteolysis) (log2 ratio); higher = more trypsin-susceptible (destabilized)). Details: ligand concentration: 5 uM; sample: K562 cleared lysate.

Protein sequences, listed by entry. Tags and fused reporters are not part of them. Lines headed by an entry give the natural chain unless they say otherwise; changes in a name come on top.
UniProt O00481: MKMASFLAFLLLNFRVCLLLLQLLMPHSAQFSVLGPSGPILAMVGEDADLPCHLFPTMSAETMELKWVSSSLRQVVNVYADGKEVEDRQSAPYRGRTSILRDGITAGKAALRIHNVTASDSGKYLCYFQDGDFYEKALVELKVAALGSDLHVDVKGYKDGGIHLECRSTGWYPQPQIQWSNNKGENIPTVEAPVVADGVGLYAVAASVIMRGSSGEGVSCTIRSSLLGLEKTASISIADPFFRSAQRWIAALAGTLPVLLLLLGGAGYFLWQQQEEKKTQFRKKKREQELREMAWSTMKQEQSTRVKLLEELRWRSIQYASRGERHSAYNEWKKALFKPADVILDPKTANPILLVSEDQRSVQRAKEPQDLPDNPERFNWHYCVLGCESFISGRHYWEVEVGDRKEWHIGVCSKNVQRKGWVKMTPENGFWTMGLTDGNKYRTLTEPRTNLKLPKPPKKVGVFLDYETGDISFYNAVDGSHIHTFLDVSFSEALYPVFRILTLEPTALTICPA
UniProt A8MTY0: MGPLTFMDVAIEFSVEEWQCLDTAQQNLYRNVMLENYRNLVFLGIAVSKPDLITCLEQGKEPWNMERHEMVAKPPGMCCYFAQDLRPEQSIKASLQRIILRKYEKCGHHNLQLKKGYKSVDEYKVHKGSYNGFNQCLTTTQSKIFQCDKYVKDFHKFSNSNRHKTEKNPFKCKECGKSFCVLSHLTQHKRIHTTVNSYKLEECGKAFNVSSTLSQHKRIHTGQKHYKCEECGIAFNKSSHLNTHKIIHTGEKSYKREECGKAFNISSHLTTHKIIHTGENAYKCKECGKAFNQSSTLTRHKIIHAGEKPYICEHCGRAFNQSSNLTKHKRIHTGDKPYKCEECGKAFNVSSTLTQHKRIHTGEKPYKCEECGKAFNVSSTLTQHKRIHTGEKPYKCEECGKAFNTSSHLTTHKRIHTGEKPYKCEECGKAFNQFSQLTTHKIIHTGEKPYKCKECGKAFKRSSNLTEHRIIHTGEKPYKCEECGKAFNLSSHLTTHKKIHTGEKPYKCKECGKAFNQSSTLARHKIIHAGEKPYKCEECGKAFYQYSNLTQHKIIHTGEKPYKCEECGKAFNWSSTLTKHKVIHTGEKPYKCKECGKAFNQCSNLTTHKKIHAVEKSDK
UniProt O00506, whole entry, looked up: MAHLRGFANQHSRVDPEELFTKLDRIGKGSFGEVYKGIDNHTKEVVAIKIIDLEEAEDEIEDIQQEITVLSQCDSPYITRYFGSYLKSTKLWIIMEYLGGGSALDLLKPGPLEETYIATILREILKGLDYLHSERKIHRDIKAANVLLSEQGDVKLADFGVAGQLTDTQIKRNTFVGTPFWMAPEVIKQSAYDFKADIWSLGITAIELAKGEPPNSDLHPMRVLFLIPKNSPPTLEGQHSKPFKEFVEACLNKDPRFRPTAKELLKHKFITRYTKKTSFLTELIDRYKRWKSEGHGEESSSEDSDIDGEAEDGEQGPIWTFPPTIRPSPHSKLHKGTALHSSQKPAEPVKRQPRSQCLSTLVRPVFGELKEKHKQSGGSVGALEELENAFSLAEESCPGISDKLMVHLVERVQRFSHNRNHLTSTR
UniProt O15127: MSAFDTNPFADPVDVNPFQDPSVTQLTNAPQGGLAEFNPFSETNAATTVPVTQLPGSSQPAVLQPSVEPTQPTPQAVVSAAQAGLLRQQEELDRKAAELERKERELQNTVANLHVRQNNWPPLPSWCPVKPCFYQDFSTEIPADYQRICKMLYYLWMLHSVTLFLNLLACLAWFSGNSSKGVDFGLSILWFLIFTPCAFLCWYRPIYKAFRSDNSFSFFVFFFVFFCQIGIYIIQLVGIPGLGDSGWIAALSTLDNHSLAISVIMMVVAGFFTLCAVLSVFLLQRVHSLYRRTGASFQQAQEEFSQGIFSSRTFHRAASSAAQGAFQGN
UniProt O14867: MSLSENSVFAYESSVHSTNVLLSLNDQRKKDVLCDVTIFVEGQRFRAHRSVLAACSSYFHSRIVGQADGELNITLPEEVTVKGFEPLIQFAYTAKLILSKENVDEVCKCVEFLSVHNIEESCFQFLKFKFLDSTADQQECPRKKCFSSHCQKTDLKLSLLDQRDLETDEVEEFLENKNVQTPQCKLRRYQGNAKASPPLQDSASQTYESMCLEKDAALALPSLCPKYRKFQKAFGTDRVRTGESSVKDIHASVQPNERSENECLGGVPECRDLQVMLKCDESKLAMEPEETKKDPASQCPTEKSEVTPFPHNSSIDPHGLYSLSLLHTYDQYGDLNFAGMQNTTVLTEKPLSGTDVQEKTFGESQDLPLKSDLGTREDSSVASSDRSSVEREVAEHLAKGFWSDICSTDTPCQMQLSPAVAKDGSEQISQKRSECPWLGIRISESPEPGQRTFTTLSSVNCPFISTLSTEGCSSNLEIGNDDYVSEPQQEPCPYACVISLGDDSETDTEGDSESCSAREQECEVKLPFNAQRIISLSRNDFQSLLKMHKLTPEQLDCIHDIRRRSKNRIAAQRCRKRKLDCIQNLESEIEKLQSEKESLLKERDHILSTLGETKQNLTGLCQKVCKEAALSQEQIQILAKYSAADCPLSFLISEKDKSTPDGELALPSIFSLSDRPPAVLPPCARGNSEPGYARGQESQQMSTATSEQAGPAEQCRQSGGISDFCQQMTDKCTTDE
UniProt O00159, whole entry: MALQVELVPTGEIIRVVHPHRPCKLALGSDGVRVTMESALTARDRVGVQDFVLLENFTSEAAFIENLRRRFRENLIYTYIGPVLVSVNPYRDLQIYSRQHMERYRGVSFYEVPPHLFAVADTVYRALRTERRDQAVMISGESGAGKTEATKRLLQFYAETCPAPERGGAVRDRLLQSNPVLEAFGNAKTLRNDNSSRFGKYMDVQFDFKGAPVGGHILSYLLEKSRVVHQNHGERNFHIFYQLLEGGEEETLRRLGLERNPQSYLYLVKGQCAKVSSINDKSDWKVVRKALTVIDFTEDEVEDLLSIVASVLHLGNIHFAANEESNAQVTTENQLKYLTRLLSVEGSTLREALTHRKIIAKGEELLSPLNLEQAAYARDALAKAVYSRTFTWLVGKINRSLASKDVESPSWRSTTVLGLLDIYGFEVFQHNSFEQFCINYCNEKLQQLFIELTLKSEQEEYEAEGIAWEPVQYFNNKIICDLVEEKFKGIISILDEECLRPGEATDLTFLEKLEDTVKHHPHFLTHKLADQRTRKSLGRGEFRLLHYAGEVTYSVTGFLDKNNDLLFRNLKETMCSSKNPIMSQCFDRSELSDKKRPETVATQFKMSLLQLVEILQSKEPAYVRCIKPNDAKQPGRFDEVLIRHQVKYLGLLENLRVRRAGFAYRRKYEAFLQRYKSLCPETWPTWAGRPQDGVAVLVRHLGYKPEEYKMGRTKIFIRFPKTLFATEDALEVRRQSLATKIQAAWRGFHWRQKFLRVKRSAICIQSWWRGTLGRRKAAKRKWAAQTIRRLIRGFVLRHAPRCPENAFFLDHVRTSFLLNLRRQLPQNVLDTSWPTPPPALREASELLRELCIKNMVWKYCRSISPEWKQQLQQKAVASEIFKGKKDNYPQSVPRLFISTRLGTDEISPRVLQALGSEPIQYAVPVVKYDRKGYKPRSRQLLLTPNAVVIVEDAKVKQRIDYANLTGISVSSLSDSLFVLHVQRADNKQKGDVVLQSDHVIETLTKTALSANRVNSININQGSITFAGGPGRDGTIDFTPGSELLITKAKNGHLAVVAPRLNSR
UniProt O14810: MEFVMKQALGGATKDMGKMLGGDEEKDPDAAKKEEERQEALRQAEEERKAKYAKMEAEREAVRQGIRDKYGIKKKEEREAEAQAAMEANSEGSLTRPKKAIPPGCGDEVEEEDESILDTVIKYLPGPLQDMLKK
UniProt O14979: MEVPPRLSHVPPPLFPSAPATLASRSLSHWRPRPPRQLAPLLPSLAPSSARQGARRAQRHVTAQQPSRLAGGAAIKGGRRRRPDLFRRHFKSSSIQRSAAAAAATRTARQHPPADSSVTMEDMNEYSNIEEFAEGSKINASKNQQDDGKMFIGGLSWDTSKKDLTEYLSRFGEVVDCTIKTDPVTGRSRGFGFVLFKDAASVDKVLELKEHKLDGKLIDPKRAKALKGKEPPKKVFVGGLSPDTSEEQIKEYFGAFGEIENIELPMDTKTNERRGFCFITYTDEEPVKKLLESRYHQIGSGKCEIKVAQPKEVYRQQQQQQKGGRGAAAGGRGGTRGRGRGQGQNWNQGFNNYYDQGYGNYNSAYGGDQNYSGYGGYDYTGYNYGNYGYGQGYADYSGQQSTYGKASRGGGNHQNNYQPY
UniProt O00748: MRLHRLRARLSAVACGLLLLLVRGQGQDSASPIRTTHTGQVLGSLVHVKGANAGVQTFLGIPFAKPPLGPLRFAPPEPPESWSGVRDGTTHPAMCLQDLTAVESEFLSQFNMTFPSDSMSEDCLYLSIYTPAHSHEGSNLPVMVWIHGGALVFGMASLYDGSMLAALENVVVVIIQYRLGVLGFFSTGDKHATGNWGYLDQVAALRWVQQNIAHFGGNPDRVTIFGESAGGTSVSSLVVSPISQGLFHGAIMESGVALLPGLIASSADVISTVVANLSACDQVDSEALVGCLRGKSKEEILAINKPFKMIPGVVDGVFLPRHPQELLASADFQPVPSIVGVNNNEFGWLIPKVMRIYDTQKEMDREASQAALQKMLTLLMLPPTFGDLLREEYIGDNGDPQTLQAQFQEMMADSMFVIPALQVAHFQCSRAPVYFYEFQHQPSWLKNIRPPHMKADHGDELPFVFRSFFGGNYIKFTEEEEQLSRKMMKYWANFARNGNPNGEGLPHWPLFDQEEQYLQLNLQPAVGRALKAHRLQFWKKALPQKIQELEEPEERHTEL
UniProt O00534: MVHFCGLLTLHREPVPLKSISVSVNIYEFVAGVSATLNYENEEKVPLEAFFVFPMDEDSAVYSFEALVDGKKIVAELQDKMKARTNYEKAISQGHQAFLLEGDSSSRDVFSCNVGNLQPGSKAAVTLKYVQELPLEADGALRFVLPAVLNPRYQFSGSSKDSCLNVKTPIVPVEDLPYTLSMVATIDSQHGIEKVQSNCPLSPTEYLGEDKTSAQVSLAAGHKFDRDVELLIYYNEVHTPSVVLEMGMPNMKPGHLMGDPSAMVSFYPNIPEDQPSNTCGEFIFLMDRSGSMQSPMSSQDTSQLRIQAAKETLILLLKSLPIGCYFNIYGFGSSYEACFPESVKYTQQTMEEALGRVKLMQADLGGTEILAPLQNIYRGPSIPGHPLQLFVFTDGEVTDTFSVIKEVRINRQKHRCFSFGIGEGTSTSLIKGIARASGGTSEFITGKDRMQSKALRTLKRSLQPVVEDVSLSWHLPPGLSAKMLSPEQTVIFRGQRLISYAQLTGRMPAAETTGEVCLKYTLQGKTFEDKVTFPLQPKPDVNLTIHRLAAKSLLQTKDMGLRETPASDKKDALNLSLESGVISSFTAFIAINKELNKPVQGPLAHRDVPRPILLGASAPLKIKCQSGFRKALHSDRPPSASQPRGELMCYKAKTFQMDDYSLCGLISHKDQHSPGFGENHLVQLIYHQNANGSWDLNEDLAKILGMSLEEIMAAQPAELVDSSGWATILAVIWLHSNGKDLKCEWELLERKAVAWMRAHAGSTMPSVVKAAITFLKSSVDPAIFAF
UniProt O00116: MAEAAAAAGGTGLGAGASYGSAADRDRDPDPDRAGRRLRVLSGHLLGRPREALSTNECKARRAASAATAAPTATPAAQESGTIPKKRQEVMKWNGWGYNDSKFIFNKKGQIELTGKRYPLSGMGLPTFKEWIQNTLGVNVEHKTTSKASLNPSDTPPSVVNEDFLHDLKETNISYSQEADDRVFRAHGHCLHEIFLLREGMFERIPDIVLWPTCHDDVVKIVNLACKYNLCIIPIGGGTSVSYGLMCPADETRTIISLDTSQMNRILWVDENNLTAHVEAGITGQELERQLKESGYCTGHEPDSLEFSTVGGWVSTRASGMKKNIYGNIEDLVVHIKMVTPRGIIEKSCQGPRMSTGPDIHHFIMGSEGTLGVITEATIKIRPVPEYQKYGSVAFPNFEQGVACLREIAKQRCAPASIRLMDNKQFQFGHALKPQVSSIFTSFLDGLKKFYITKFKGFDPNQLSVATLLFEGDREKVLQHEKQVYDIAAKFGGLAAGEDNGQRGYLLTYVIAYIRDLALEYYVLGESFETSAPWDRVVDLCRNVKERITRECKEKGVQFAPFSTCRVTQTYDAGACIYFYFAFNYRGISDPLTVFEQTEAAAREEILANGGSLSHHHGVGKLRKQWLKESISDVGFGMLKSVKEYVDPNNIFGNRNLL
UniProt B2RUZ4: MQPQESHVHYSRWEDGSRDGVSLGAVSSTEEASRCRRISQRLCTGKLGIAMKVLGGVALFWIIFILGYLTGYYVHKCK
UniProt O15305: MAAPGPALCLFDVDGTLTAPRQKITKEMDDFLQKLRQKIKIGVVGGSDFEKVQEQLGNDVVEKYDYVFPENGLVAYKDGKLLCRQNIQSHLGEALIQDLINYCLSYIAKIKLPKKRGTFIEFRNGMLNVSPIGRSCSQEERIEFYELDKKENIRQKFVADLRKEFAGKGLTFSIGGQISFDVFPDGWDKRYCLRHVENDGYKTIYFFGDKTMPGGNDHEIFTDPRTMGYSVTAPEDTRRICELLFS

Target | log2 fold change
UniProt O00481 (peptide sequence: HYWEVEVGDR, peptide start residue: 342) | -0.042
ZNF724 (peptide sequence: AFNLSSHLTTHK, peptide start residue: 486) (UniProt A8MTY0) | 0.33
NACA (peptide sequence: IEDLSQQAQLAAAEKFK, peptide start residue: 1991) (UniProt E9PAV3) | -0.0661
UniProt O14733 (peptide sequence: HMLGLPSTLFTPR, peptide start residue: 73) | -0.171
SUPT5H (peptide sequence: TRHLVLAGGSKPR, peptide start residue: 640) (UniProt O00267) | -0.825
SLC27A2 (peptide sequence: KLFQHIADYLPSYARPR, peptide start residue: 541) (UniProt O14975) | -0.408
KRIT1 (peptide sequence: SKAPHWTNR, peptide start residue: 592) (UniProt O00522) | -0.425
UniProt O15091 (peptide sequence: SSQWSRDEMEEVQK, peptide start residue: 452) | 0.4
UniProt O00193 (peptide sequence: ESHPHGVK, peptide start residue: 6) | -0.13
UniProt O00506 (peptide sequence: YFGSYLK, peptide start residue: 81) | -0.449
UniProt B7ZLF3 (peptide sequence: IHSGEKPHQCAQCGR, peptide start residue: 117) | 1.01
POLR1C (peptide sequence: VVLGEFGVR, peptide start residue: 14) (UniProt O15160) | -0.0392
DFFA (peptide sequence: ASPPGDLQNPKR, peptide start residue: 314) (UniProt O00273) | -0.174
HMGB3 (peptide sequence: PKGKMSAYAFFVQTCR, peptide start residue: 9) (UniProt O15347) | 0.759
SCAMP2 (peptide sequence: QQEELDR, peptide start residue: 88) (UniProt O15127) | 0.335
UniProt C4AMC7 (peptide sequence: THVMLGAETEEKLFDAPLSISKR, peptide start residue: 199) | 0.281
N4BP3 (peptide sequence: APGTLPEADPSARPEEEAR, peptide start residue: 349) (UniProt O15049) | 0.696
BACH1 (peptide sequence: SECPWLGIR, peptide start residue: 433) (UniProt O14867) | 0.138
MYO1C (peptide sequence: QKGDVVLQSDHVIETLTK, peptide start residue: 988) (UniProt O00159) | -0.244

Target | log2 fold change
CPLX1 (peptide sequence: YLPGPLQDMLKK, peptide start residue: 123) (UniProt O14810) | -0.158
PIK3R2 (peptide sequence: YQQDQIVK, peptide start residue: 428) (UniProt O00459) | 0.631
UniProt O00567 (peptide sequence: VREWYGYHFPELVK, peptide start residue: 189) | 0.136
ZBTB5 (peptide sequence: MPVVTSVR, peptide start residue: 542) (UniProt O15062) | -0.315
UniProt O14979 (peptide sequence: DLTEYLSR, peptide start residue: 163) | 0.0641
CES2 (peptide sequence: ADHGDELPFVFR, peptide start residue: 455) (UniProt O00748) | -0.552
VWA5A (peptide sequence: DVPRPILLGASAPLK, peptide start residue: 607) (UniProt O00534) | 0.177
KIF3B (peptide sequence: RPVSAVGYK, peptide start residue: 628) (UniProt O15066) | 0.615
SURF4 (peptide sequence: SMFAGVPTMR, peptide start residue: 140) (UniProt O15260) | 0.074
AGPS (peptide sequence: RYPLSGMGLPTFK, peptide start residue: 117) (UniProt O00116) | -0.291
UniProt A9YTQ3 (peptide sequence: ASGVTGR, peptide start residue: 388) | 0.933
SMIM1 (peptide sequence: MQPQESHVHYSR, peptide start residue: 1) (UniProt B2RUZ4) | 0.0544
PSMA7 (peptide sequence: YVAEIEKEKEENEK, peptide start residue: 228) (UniProt O14818) | 0.0723
UniProt O14978 (peptide sequence: CSECGESFSR, peptide start residue: 661) | 0.854
KMT2D (peptide sequence: KGEAEGPGGKEK, peptide start residue: 4832) (UniProt O14686) | -1.12
CLIC1 (peptide sequence: LFMVLWLK, peptide start residue: 30) (UniProt O00299) | -0.966
RFXAP (peptide sequence: SPEVVQFLQK, peptide start residue: 241) (UniProt O00287) | 0.0896
FHAD1 (peptide sequence: ETLEEERK, peptide start residue: 703) (UniProt B1AJZ9) | 0.0353
PMM2 (peptide sequence: RICELLFS, peptide start residue: 239) (UniProt O15305) | -0.353

Pulled one by one from the entries so far:
Target | log2 fold change
PIK3R2 (peptide sequence: YQQDQIVK, peptide start residue: 428) (UniProt O00459) | 0.631
UniProt O00481 (peptide sequence: HYWEVEVGDR, peptide start residue: 342) | -0.042

Reference: the supplement of paper PMC12819154, “High-throughput peptide-centric local stability assay extends protein–ligand identification to membrane proteins, tissues and bacteria” (Nature Structural & Molecular Biology, 2025)
